Laboratory results reported in paper PMC5466602.
Results are given in words; binding and its absence hold for the method and conditions named. Binding seen in cells or lysates may run through a third protein. Some results given as binding are weak or reduced against the parent protein; the word gives no strength. For some of these results: Sequences can lack the tags named with a protein.

T1: Utp21p-GFP (S. cerevisiae) (UniProt Q06078)
T1 sequence: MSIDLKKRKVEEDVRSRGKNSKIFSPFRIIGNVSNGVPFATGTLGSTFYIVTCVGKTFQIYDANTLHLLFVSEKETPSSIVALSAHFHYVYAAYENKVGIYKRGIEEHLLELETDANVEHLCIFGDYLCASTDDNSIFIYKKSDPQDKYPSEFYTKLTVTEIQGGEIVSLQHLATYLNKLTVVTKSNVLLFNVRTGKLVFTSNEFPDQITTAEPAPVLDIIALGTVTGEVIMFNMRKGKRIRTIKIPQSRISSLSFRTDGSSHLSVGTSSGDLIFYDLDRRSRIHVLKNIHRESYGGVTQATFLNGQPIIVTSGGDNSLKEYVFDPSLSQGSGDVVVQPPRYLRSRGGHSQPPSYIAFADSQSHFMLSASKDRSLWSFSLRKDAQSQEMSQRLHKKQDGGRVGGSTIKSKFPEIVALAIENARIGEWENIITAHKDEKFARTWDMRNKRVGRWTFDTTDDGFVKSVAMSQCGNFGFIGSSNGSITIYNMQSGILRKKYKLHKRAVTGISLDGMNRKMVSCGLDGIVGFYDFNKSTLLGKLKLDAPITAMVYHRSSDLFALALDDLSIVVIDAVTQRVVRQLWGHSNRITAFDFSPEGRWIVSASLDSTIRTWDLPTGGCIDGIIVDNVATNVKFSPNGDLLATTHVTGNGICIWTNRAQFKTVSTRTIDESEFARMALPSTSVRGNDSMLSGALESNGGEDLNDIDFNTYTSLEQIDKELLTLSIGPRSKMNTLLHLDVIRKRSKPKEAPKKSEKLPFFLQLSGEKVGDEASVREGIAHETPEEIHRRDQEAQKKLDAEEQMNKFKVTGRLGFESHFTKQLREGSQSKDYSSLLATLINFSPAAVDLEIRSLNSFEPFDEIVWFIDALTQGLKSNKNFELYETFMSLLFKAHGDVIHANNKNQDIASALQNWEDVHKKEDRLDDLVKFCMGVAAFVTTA

T2: Utp21p-TAP (S. cerevisiae) (UniProt Q06078)
T2 sequence: T1 sequence

T3: Utp12p, full-length (co-expressed in E. coli) (S. cerevisiae) (UniProt Q12220)
T3 sequence: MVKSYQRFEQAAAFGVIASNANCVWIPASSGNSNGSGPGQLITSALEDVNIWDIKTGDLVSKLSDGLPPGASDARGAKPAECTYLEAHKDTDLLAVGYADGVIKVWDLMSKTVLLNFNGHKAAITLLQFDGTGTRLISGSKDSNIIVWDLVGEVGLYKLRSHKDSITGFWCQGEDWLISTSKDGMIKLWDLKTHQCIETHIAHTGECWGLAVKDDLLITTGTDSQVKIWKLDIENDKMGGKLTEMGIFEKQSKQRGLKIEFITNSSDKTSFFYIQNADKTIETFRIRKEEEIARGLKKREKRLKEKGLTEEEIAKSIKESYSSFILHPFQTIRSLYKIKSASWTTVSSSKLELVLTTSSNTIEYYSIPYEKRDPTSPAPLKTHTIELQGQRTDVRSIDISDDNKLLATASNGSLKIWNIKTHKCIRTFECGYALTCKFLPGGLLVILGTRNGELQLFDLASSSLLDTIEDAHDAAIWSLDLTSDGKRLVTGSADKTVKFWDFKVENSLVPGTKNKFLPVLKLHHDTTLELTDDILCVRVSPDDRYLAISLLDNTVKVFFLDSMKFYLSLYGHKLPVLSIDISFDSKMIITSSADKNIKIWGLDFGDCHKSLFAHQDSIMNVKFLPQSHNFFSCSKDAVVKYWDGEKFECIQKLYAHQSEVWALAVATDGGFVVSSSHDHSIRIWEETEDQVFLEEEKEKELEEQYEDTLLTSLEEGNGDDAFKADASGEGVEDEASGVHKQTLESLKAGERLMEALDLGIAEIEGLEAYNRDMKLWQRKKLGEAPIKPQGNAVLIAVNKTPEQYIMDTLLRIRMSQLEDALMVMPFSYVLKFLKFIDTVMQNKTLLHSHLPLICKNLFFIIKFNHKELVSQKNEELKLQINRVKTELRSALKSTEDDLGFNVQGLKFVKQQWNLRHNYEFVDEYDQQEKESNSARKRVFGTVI

B1: Utp18p (protein, UniProt P40362 1-594)
chain: MTMATTAMNVSVPPPDEEEQLLAKFVFGDTTDLQENLAKFNADFIFNEQEMDVEDQEDEGSESDNSEEDEAQNGELDHVNNDQLFFVDDGGNEDSQDKNEDTMDVDDEDDSSSDDYSEDSEEAAWIDSDDEKIKVPILVTNKTKKLRTSYNESKINGVHYINRLRSQFEKIYPRPKWVDDESDSELDDEEDDEEEGSNNVINGDINALTKILSTTYNYKDTLSNSKLLPPKKLDIVRLKDANASHPSHSAIQSLSFHPSKPLLLTGGYDKTLRIYHIDGKTNHLVTSLHLVGSPIQTCTFYTSLSNQNQQNIFTAGRRRYMHSWDLSLENLTHSQTAKIEKFSRLYGHESTQRSFENFKVAHLQNSQTNSVHGIVLLQGNNGWINILHSTSGLWLMGCKIEGVITDFCIDYQPISRGKFRTILIAVNAYGEVWEFDLNKNGHVIRRWKDQGGVGITKIQVGGGTTTTCPALQISKIKQNRWLAVGSESGFVNLYDRNNAMTSSTPTPVAALDQLTTTISNLQFSPDGQILCMASRAVKDALRLVHLPSCSVFSNWPTSGTPLGKVTSVAFSPSGGLLAVGNEQGKVRLWKLNHY
B2: Pwp2p-ΔC206 (aa 1–717) (domain or fragment, UniProt P25635 1-717)
chain: MKSDFKFSNLLGTVYRQGNITFSDDGKQLLSPVGNRVSVFDLINNKSFTFEYEHRKNIAAIDLNKQGTLLISIDEDGRAILVNFKARNVLHHFNFKEKCSAVKFSPDGRLFALASGRFLQIWKTPDVNKDRQFAPFVRHRVHAGHFQDITSLTWSQDSRFILTTSKDLSAKIWSVDSEEKNLAATTFNGHRDYVMGAFFSHDQEKIYTVSKDGAVFVWEFTKRPSDDDDNESEDDDKQEEVDISKYSWRITKKHFFYANQAKVKCVTFHPATRLLAVGFTSGEFRLYDLPDFTLIQQLSMGQNPVNTVSVNQTGEWLAFGSSKLGQLLVYEWQSESYILKQQGHFDSTNSLAYSPDGSRVVTASEDGKIKVWDITSGFCLATFEEHTSSVTAVQFAKRGQVMFSSSLDGTVRAWDLIRYRNFRTFTGTERIQFNCLAVDPSGEVVCAGSLDNFDIHVWSVQTGQLLDALSGHEGPVSCLSFSQENSVLASASWDKTIRIWSIFGRSQQVEPIEVYSDVLALSMRPDGKEVAVSTLKGQISIFNIEDAKQVGNIDCRKDIISGRFNQDRFTAKNSERSKFFTTIHYSFDGMAIVAGGNNNSICLYDVPNEVLLKRFIVSRNMALNGTLEFLNSKKMTEAGSLDLIDDAGENSDLEDRIDNSLPGSQRGGDLSTRKMRPEVRVTSVQFSPTANAFAAASTEGLLIYSTNDTILFDPFDL
B3: Utp13p, full-length (co-expressed in E. coli) (protein, UniProt Q05946 1-817)
chain: MDLKTSYKGISLNPIYAGSSAVATVSENGKILATPVLDEINIIDLTPGSRKILHKISNEDEQEITALKLTPDGQYLTYVSQAQLLKIFHLKTGKVVRSMKISSPSYILDADSTSTLLAVGGTDGSIIVVDIENGYITHSFKGHGGTISSLKFYGQLNSKIWLLASGDTNGMVKVWDLVKRKCLHTLQEHTSAVRGLDIIEVPDNDEPSLNLLSGGRDDIINLWDFNMKKKCKLLKTLPVNQQVESCGFLKDGDGKRIIYTAGGDAIFQLIDSESGSVLKRTNKPIEELFIIGVLPILSNSQMFLVLSDQTLQLINVEEDLKNDEDTIQVTSSIAGNHGIIADMRYVGPELNKLALATNSPSLRIIPVPDLSGPEASLPLDVEIYEGHEDLLNSLDATEDGLWIATASKDNTAIVWRYNENSCKFDIYAKYIGHSAAVTAVGLPNIVSKGYPEFLLTASNDLTIKKWIIPKPTASMDVQIIKVSEYTRHAHEKDINALSVSPNDSIFATASYDKTCKIWNLENGELEATLANHKRGLWDVSFCQYDKLLATSSGDKTVKIWSLDTFSVMKTLEGHTNAVQRCSFINKQKQLISCGADGLIKIWDCSSGECLKTLDGHNNRLWALSTMNDGDMIVSADADGVFQFWKDCTEQEIEEEQEKAKLQVEQEQSLQNYMSKGDWTNAFLLAMTLDHPMRLFNVLKRALGESRSRQDTEEGKIEVIFNEELDQAISILNDEQLILLMKRCRDWNTNAKTHTIAQRTIRCILMHHNIAKLSEIPGMVKIVDAIIPYTQRHFTRVDNLVEQSYILDYALVEMDKLF
B4: Pwp2p-ΔC66 (domain or fragment, UniProt P25635 1-857)
chain: MKSDFKFSNLLGTVYRQGNITFSDDGKQLLSPVGNRVSVFDLINNKSFTFEYEHRKNIAAIDLNKQGTLLISIDEDGRAILVNFKARNVLHHFNFKEKCSAVKFSPDGRLFALASGRFLQIWKTPDVNKDRQFAPFVRHRVHAGHFQDITSLTWSQDSRFILTTSKDLSAKIWSVDSEEKNLAATTFNGHRDYVMGAFFSHDQEKIYTVSKDGAVFVWEFTKRPSDDDDNESEDDDKQEEVDISKYSWRITKKHFFYANQAKVKCVTFHPATRLLAVGFTSGEFRLYDLPDFTLIQQLSMGQNPVNTVSVNQTGEWLAFGSSKLGQLLVYEWQSESYILKQQGHFDSTNSLAYSPDGSRVVTASEDGKIKVWDITSGFCLATFEEHTSSVTAVQFAKRGQVMFSSSLDGTVRAWDLIRYRNFRTFTGTERIQFNCLAVDPSGEVVCAGSLDNFDIHVWSVQTGQLLDALSGHEGPVSCLSFSQENSVLASASWDKTIRIWSIFGRSQQVEPIEVYSDVLALSMRPDGKEVAVSTLKGQISIFNIEDAKQVGNIDCRKDIISGRFNQDRFTAKNSERSKFFTTIHYSFDGMAIVAGGNNNSICLYDVPNEVLLKRFIVSRNMALNGTLEFLNSKKMTEAGSLDLIDDAGENSDLEDRIDNSLPGSQRGGDLSTRKMRPEVRVTSVQFSPTANAFAAASTEGLLIYSTNDTILFDPFDLDVDVTPHSTVEALREKQFLNALVMAFRLNEEYLINKVYEAIPIKEIPLVASNIPAIYLPRILKFIGDFAIESQHIEFNLIWIKALLSASGGYINEHKYLFSTAMRSIQRFIVRVAKEVVNTTTDNKYTYRFLVSTDGSME

Legend:
[1] = molecular target: T1, Utp21p-GFP (S. cerevisiae); assay: co-IP; Utp21p-GFP purified on GFP-TRAP-M magnetic beads (Chromotek) from yeast lysate, buffer PM; western blot; 14 h in glucose medium to deplete genomic Pwp2p, plasmid-borne PWP2 alleles
[2] = molecular target: T2, Utp21p-TAP (S. cerevisiae); assay: co-IP; Utp21p-TAP purified on IgG-coupled magnetic beads from yeast lysate, buffer PM (150 mM KOAc, 20 mM Tris-HCl pH 8.0, 5 mM MgCl2, 1 mM DTT, 0.2% Triton); eluate analysed by western blot; genomic GAL::HA-PWP2 shut off in glucose (8 h, 18 h or 14 h) with a plasmid-borne PWP2 allele or empty plasmid
[3] = molecular target: T3, Utp12p, full-length (co-expressed in E. coli) (S. cerevisiae); assay: pull-down; co-expression of four proteins in E. coli from three plasmids (bi-cistronic UTP12-UTP13 in modified pET-28b, PWP2 and UTP21 constructs in modified pET-15b and pCDF); cobalt-affinity pull-down, SDS-PAGE, Coomassie; bands confirmed by mass spectrometry
[4] = molecular target: T3, Utp12p, full-length (co-expressed in E. coli) (S. cerevisiae); assay: pull-down; pairwise co-expression in E. coli Rosetta2, N-terminal His tag on one partner; cleared lysate on cobalt-affinity resin 30 min at 4 °C in 1.5x PBS, 1 mM magnesium acetate, 0.1% NP-40, 20 mM imidazole, 10% glycerol; SDS-PAGE, Coomassie

Binder | binding [1] | binding [2] | binding [3] | binding [4]
B1 | binds | binds | – | –
B2 | binds | binds | – | –
B3 | – | – | binds | binds
B4 | – | binds | – | –
